Experimental data as given in doi:10.1101/2024.12.04.625416.
These are yes or no findings as the source states them, for the method shown. In cells and extracts the contact can be indirect. Here binding means that the protein was enriched with, or labelled near, the bait; the list need not be complete.

Target: PbSUN1 with C-terminal GFP tag (SUN1-GFP) (Plasmodium berghei)
Assay: affinity purification with mass spectrometry

Substance: DDRGK-domain containing UFM1 E3 ligase (from UniProt A0A509AQ22)
- binding: binds
